Experimental data published in patent publication US20190101539A1, “METABOLOMIC BASED BIOMARKERS FOR COLON CANCER DETECTION” (UNIVERSITY OF SOUTHERN CALIFORNIA, priority 2015, published 2019).

Assay: LC-MS metabolomics assay of FOCM metabolite plasma levels, CRC patients vs healthy subjects
Set-up: species or system human
Details: Table 2

| SMILES | circulating concentrations in CRC patients compared to healthy subjects |
| --- | --- |
| Cc1cc2nc3c(=O)[nH]c(=O)nc-3n(C[C@H](O)[C@H](O)[C@H](O)COP(=O)(O)O)c2cc1C [Flavin mononucleotide] | significantly different |
| Cc1ncc(CO)c(CO)c1O [Pyridoxine] | elevated |
